Experimental data taken from PubChem BioAssay AID493014 (National Center for Advancing Translational Sciences (NCATS), 2011).
The list shows a part of the results. The main result of the screen is listed elsewhere. These columns were measured beside it and carry no call. Compounds called inactive in the main read-out are mostly missing here. Words in brackets tell the shape of the fitted curve; partial curves, single points and poor fits give uncertain potencies.

Assay: qHTS Assay to Find Inhibitors of Chronic Active B-Cell Receptor Signaling
Settings: ABC-DLBCL IkBa-CBG/CBR reporter, luminescence ratio (green luciferase fused to IkBa over red control in TMD8 lymphoma cells), 4 h
Outline: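 Cell line TMD8 (human ABC DLBCL), stably expressing tet-inducible CBG68-IkBa fusion and CBR; IMDM/0.5% FBS; cpd up to 46 uM; dox induction, 4 h, 37C/5% CO2; dual luminescence; green/red ratio; MG132 control.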

[1] = measured here: CBR red luminescence, cell number
[2] = measured here: IkBa-CBG green luminescence

In the case of `O=C(/C=C/c1ccc(Br)cc1)c1ccc(NC2=NCCCS2)cc1`, the AC50 [1] is reported as 18.4 µM [falling, single point].
With `Cc1cccnc1NC(=O)c1sc2ccccc2c1Cl` the AC50 [1] was 11.2 µM [falling, partial curve, poor fit].
With `CCn1nc(C)c(Br)c1-c1nc(CS(=O)(=O)c2ccsc2)no1` the AC50 [1] was 0.355 µM [falling, full curve, poor fit].
For `CC(C)(C)n1nnnc1C(c1cccnc1)N1CCN(c2cccc(C(F)(F)F)c2)CC1` (centres undefined), the AC50 [1] was 0.00517 µM [rising, full curve, poor fit].
With `COc1ccccc1CNCC(=O)Nc1ccc(N(C)C)cc1` the AC50 [1] was 12.6 µM [falling, partial curve].
With `CCCCC#Cc1cncc(C(=O)N/N=C/c2cccc(OC)c2)c1` the AC50 [1] was 3.98 µM [falling, partial curve].
In the case of `Cn1c(SCC(=O)Nc2cccc(NC(=O)c3cccs3)c2)nnc1-c1ccncc1`, the AC50 [1] is reported as 35.5 µM [falling, single point].
In the case of `CCS(=O)(=O)N1Cc2ccccc2CC1C(=O)Nc1nc2ccccc2s1` (centres undefined), the AC50 [1] is reported as 0.461 µM [falling, full curve].
For `Cc1c(NC(=O)COC(=O)CCC(=O)c2ccc(Cl)cc2)c(=O)n(-c2ccccc2)n1C`, the AC50 [1] was 12.6 µM [falling, partial curve, poor fit].
For `Cc1cccc(CSc2nc3sc(C)c(C)c3c(=O)n2Cc2ccco2)c1`, the AC50 [1] was 23.1 µM [falling, single point].
With `Clc1nc2c(ccc3ccccc32)[nH]1` the AC50 [1] was 3.55 µM [rising, partial curve, poor fit].
In the case of `O=C1C(c2c(O)[nH]c3ccccc23)=Nc2ccccc21`, the AC50 [1] is reported as 0.501 µM [rising, full curve, poor fit].
In the case of `COc1ccccc1NC(=O)Nc1ccc(C(=O)N2CCCCC2)cc1`, the AC50 [1] is reported as 8.91 µM [falling, partial curve, poor fit] and the AC50 [2] is reported as 12.6 µM [rising, single point].
With `Cc1ccc(S(=O)(=O)N(C)C)cc1NC(=O)COC(=O)/C=C/c1ccc2ccccc2n1` the AC50 [1] was 20.6 µM [falling, single point].
In the case of `COc1cc(CC(=O)OCC(=O)NC2CCCCCC2)cc(OC)c1OC`, the AC50 [1] is reported as 7.31 µM [rising, partial curve, poor fit].
With `O=C(CCc1nc2ccccc2c(=O)[nH]1)Nc1nnc(SCc2ccccc2F)s1` the AC50 [1] was 29.1 µM [rising, single point].
In the case of `CCOC(=O)c1ccccc1NC(=O)COC(=O)c1c(CC)noc1C`, the AC50 [1] is reported as 20.6 µM [falling, single point].
For `O=C(NCc1cccnc1)/C(=C\c1ccc(-c2ccc(Br)cc2)o1)S(=O)(=O)c1ccccc1`, the AC50 [1] was 7.31 µM [falling, partial curve, poor fit] and the AC50 [2] was 23.1 µM [rising, partial curve, poor fit].
For `CCOc1ccc(-c2nc(-c3cccs3)c(CC(=O)O)s2)cc1OC`, the AC50 [1] was 5.62 µM [rising, single point].
With `COc1ccccc1N(CC(=O)Nc1ccccc1C(=O)NC(C)C)S(C)(=O)=O` the AC50 [1] was 4.47 µM [rising, full curve].
In the case of `Cn1cccc1C(=O)OCC(=O)NCCc1ccccc1`, the AC50 [1] is reported as 32.6 µM [rising, single point].
For `Cc1ccc(C)c(NC(=S)N=Nc2c(O)n(C)c3ccc(S(=O)(=O)N4CCOCC4)cc23)c1`, the AC50 [1] was 20.6 µM [falling, single point] and the AC50 [2] was 4.61 µM [falling, full curve].
With `Cc1ccc(C(=O)N2CCc3cc(CNC(=O)CCc4ccccc4)ccc32)cc1` the AC50 [1] was 35.5 µM [falling, single point].
In the case of `O=C(c1ccccc1)N1CCN(C(=S)NCCc2ccccc2)CC1`, the AC50 [1] is reported as 29.1 µM [rising, single point].
For `O=C1c2ccccc2C(=O)N1CC1c2ccccc2CCN1C(=O)C1CCCCC1` (centres undefined), the AC50 [1] was 32.6 µM [falling, single point].
In the case of `COc1ccc(C(=O)Nc2ccc(Cl)cn2)cc1Cl`, the AC50 [1] is reported as 14.1 µM [falling, partial curve, poor fit].
With `Cc1ccccc1NC(=O)CCN1CCc2ccccc2C1` the AC50 [1] was 7.94 µM [falling, partial curve, poor fit].
In the case of `CC(O)Cc1cn([C@@H](CCCCNC(=O)OC(C)(C)C)C(=O)N2CCN(C(=O)OC(C)(C)C)CC2)nn1` (some centres undefined), the AC50 [1] is reported as 35.5 µM [rising, single point].
With `Cc1c(/C=N\NC(=O)c2cc3ccccc3o2)c2ccccc2n1C` the AC50 [1] was 31.6 µM [rising, partial curve, poor fit] and the AC50 [2] was 12.6 µM [falling, partial curve, poor fit].
With `COc1ccc2c(c1)C(=O)N1[C@H]3c4cc(C)ccc4OC[C@@H]3[C@H](c3ccccc3)[C@]1(C)C(=O)N2` the AC50 [1] was 5.8 µM [falling, full curve] and the AC50 [2] was 5.17 µM [rising, full curve, poor fit].
With `Nc1nc(CSc2ccc(Cl)cc2)nc(N2CCCCC2)n1` the AC50 [1] was 14.1 µM [rising, partial curve, poor fit].
For `CCOC(=O)CSc1nnc(-c2ccccc2)o1`, the AC50 [1] was 13 µM [rising, partial curve] and the AC50 [2] was 11.6 µM [rising, partial curve, poor fit].
For `O=C(Nc1ccccc1)Nc1nc(-c2ccccc2)cs1`, the AC50 [1] was 10 µM [falling, partial curve].
With `O=C(Nc1cccc(-c2cn3c(n2)SCC3)c1)c1ccc(Br)o1` the AC50 [1] was 22.4 µM [falling, single point].
With `COc1cc(OC)cc(C(=O)NC(C(=O)Nc2ccc3nc(C)sc3c2)C(C)C)c1` (centres undefined) the AC50 [1] was 9.2 µM [rising, partial curve, poor fit].
With `Cc1ccc(NC(=O)Cn2nc(C(=O)O)c3ccccc3c2=O)c([N+](=O)[O-])c1` the AC50 [1] was 0.112 µM [rising, full curve, poor fit].
With `Cc1cc(C)c(C(N)=O)c(Nc2cccc(Cl)c2)n1` the AC50 [1] was 16.4 µM [rising, partial curve, poor fit].
With `COc1ccccc1-n1c(CNC(=O)COc2ccccc2)n[nH]c1=S` the AC50 [1] was 1.64 µM [falling, full curve].
